Reference: paper PMC6925144, “A prospective compound screening contest identified broader inhibitors for Sirtuin 1” (Scientific Reports, 2019)
In all, about 3,200 compounds were measured (“TSA(without NAD+) / Primary screening (TSA) / delta Tm (K)”: median about -0.07, highest 2% from about 0.37 on). The list shows a part of the results.

The chains behind the UniProt entries cited, without tags or fusion partners. Residues count along the entry.
UniProt Q96EB6, 2-747 limits assumed: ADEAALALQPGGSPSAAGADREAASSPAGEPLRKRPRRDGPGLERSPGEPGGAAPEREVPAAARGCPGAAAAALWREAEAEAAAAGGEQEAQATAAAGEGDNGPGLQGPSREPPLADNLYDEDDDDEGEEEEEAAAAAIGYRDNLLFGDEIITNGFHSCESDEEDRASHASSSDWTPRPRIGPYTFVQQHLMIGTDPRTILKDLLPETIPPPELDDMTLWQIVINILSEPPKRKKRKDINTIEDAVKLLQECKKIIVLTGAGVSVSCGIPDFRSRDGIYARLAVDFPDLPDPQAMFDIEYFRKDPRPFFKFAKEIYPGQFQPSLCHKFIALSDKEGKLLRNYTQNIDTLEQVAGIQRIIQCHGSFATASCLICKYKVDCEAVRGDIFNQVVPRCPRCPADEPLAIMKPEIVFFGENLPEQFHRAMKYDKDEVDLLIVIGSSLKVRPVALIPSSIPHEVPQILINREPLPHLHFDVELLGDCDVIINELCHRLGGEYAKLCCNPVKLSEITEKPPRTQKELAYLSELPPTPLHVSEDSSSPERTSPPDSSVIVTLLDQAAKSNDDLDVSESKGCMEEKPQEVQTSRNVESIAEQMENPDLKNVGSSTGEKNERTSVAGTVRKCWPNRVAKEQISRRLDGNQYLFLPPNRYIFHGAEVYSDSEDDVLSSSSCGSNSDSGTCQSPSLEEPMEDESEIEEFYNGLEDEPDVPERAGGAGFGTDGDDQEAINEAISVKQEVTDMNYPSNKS

molecular target: NAD-dependent deacetylase Sirtuin 1 (human, UniProt Q96EB6); experiment: primary screen, delta tm; design: single well (n = 1); details: 10 µM
Procedure, shortened: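 Thermal shift of Sirtuin 1 measured without NAD+, compound at 10 µM (n = 1); value is ΔTm, with hits defined as ΔTm > 0.45 K or < −1.5 K. Hits retested at 5, 10, 20 µM (n = 4) and counterscreened on bovine carbonic anhydrase and ABL1 SH2 domain.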

Structure (SMILES)	TSA(without NAD+) / Primary screening (TSA) / delta Tm (K)
CC1CCc2sc(C(=O)Nc3ccccc3Cc3ccccc3)cc2C1 (stereo not drawn)	-0.04
Cn1c(SCc2ccc(F)cc2)nc2ccsc2c1=O	-0.14
Cc1noc2ncc(NC(=O)c3c[nH]nc3-c3ccccc3F)cc12	-0.02
COc1ccc(C2C(C(=O)c3ccco3)=C(O)C(=O)N2CCCN2CCOCC2)cc1 (stereo not drawn)	0.09
O=c1cc(-c2ccccc2)c2ccc(OCCOc3ccc(Br)cc3)cc2o1	0.02
CCCCc1ccc(/N=C/c2ccc3ncccc3c2)cc1	-0.13
Cc1onc(-c2ccc(F)cc2)c1C(=O)N1CCN(S(=O)(=O)c2ccc3c(c2)CCC3)CC1	-0.13
COc1ccc(CNC(=O)C(C)OC(=O)c2cc(S(=O)(=O)NC34CC5CC(CC(C5)C3)C4)ccc2Cl)cc1 (stereo not drawn)	-0.05
CC(CN)S(C)=O (stereo not drawn)	-0.22
O=C(CCCc1nc2ccccc2c(=O)[nH]1)N1CC2CC3CC(C2)CC1C3	0.02
COc1ccc(NC(C)c2ccc(S(C)=O)cc2)cn1 (stereo not drawn)	-0.18
O=C(/C=C/c1ccc(F)cc1)NCCCn1ccc2ccccc21	0.08
Cc1ccc(NC(=O)CCC2CCCO2)cc1I (stereo not drawn)	-0.18
CC(OC(=O)c1cc2c(s1)CCCC2)C(=O)Nc1ccc(C(N)=O)cc1 (stereo not drawn)	-0.03
Cc1cccc(NC(=O)COc2ccc3c4c(c(=O)oc3c2)CCC4)c1	-0.01
O=C(CN1CCCC1=O)Nc1cc(Br)c(F)cc1F	-0.04
NCCCC[C@H](N)C(=O)O	-0.02
CCOC(=O)c1ccc(S(=O)(=O)N2CCC(C(=O)OCC(=O)NCC34CC5CC(CC(C5)C3)C4)CC2)cc1	-0.13
CC1CCCCN1c1ncnc2c1cnn2-c1ccccc1 (stereo not drawn)	0.12
O=C(Nc1ccc(N2CCN(Cc3ccccc3)CC2)cc1)c1cccc2cccnc12	0.07
COC(=O)CCNc1ncnc2ccsc12	-0.23
O=C(NC(c1ccccc1)c1ccccc1)c1ccc2ccccc2c1	0.03
Cc1ccc(-c2nc(COC(=O)CN3C(=O)c4ccccc4C3=O)cs2)cc1	-0.14
CC(=O)NCCCN	-0.11
O=C1NC(=O)c2ccccc2/C1=C\NCCCN1CCc2ccccc21	-0.33
CCNC(=O)c1ccc2[nH]c(C)c(C)c2c1	-0.03
Cc1ccc(N(C)S(=O)(=O)c2cccc(C(=O)Nc3cccc(C(=O)NC4CC4)c3)c2)cc1	0.06

Fetched by compound from the list above (2):
Structure (SMILES)	TSA(without NAD+) / Primary screening (TSA) / delta Tm (K)
O=C(CN1CCCC1=O)Nc1cc(Br)c(F)cc1F	-0.04
Cc1ccc(NC(=O)CCC2CCCO2)cc1I (stereo not drawn)	-0.18
